The results in this text go back to PMC9563726.

Amino acid sequences for entries named in this document (tags omitted).
UniProt P48995: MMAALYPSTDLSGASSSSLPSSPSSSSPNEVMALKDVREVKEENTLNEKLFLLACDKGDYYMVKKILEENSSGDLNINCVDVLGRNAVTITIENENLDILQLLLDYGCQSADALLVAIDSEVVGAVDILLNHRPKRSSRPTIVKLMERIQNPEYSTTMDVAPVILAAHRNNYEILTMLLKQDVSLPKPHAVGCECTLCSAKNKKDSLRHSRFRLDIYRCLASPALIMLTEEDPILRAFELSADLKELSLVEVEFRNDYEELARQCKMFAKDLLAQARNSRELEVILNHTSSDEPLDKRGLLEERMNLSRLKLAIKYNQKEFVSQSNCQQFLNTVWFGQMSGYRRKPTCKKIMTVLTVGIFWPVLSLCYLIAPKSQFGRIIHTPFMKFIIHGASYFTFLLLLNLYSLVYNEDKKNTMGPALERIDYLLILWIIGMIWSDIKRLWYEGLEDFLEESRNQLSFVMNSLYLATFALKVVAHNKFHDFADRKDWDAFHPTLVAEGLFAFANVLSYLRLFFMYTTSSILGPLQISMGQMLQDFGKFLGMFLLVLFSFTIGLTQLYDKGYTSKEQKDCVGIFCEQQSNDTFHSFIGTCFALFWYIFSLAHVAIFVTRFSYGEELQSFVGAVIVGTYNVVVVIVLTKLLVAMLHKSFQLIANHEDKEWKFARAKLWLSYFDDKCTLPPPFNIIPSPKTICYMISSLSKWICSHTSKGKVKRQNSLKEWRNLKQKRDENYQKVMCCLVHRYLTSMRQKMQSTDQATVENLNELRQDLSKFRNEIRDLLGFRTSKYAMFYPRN
UniProt P27986: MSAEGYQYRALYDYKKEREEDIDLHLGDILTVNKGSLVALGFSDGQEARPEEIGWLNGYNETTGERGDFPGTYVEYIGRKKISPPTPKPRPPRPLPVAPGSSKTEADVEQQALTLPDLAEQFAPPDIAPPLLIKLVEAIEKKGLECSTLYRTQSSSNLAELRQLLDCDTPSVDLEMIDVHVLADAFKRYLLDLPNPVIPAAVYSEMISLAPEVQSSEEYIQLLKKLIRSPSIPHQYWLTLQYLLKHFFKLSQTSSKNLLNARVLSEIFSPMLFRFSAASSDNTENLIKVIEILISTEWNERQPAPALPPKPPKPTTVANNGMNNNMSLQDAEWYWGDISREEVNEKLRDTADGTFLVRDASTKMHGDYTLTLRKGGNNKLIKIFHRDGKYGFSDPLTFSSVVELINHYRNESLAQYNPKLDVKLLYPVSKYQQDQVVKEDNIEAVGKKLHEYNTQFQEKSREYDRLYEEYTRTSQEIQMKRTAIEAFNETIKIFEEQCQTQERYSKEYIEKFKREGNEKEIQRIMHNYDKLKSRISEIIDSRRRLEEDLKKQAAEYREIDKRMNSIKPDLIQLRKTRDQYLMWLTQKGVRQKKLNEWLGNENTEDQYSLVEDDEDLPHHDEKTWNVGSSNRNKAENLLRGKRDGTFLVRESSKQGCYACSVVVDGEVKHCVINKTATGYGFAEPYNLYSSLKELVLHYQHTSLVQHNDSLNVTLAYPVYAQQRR

The target of experiment [1] is transient receptor potential C1 (TRPC1) (human (endogenous in PANC-1)) (UniProt P48995). As to the kind of experiment: co-IP; 500 µg PANC-1 lysate protein on Protein A magnetic beads with 1 µg TRPC1 antibody or PI3K p85α antibody, 2 h at room temperature, Western blot; cells grown at pH 7.4, pH 6.5 or pH 7.4R; non-transfected, or transfected with siCTRL or siTRPC1. On the technique in general: A western blot detects proteins with antibodies after separation by electrophoresis.

Experiment [2] shares this target. Briefly: proximity ligation; Duolink in situ PLA on fixed, permeabilised PANC-1 cells grown at normal pH (7.4), acid-adapted (pH 6.5) or acid-recovered (pH 7.4R); non-transfected, or transfected with siCTRL or siTRPC1; puncta per cell counted.
In experiment [3] the target is PI3K p85α subunit (human (endogenous in PANC-1)) (UniProt P27986). Briefly: co-IP; 500 µg PANC-1 lysate protein on Protein A magnetic beads with 1 µg TRPC1 antibody or PI3K p85α antibody, 2 h at room temperature, Western blot; cells grown at pH 7.4, pH 6.5 or pH 7.4R; non-transfected, or transfected with siCTRL or siTRPC1.

No constants are given. Whether binding was seen depends on the method and setting. Binding seen in cells or lysates may run through a third protein. Some binding calls cover weakened binding; strength is not graded here.

In the case of “PI3K p85α subunit (from UniProt P27986 1-724)”, the binding entry in experiment [1] and in experiment [2] was “binds” each time.

On to “transient receptor potential C1 (TRPC1) (from UniProt P48995 1-793)”, for which, in experiment [3], the binding entry was “binds”.
